Assay results from publication PMC9166677.
No constants are given. Whether binding was seen depends on the method and setting. A result given as binding can be weak or reduced; the word gives no strength.

Molecular target: HSP90α (C-terminal) (UniProt P07900)
Assay: HSP90α (C-terminal) inhibitor screening assay; HSP90α (C-terminal):PPID binding activity read with or without the small-molecule HSP90 inhibitors SL-145, novobiocin or geldanamycin (500 μM); n = 3

binding: binds
Substance: peptidylprolyl isomerase D (from UniProt Q08752 1-370)
